Experimental data from the supplement of paper PMC10849652.
Some of the results follow.

The chains behind the UniProt entries cited, without tags or fusion partners. Where a name states a change or a piece, a line headed by the entry shows the natural chain unless it says otherwise.
UniProt P00441, whole entry, looked up: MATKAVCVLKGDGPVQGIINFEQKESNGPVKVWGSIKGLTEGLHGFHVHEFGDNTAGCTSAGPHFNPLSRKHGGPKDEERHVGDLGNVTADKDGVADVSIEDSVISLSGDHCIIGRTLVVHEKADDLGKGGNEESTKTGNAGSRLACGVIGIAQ
UniProt Q92540: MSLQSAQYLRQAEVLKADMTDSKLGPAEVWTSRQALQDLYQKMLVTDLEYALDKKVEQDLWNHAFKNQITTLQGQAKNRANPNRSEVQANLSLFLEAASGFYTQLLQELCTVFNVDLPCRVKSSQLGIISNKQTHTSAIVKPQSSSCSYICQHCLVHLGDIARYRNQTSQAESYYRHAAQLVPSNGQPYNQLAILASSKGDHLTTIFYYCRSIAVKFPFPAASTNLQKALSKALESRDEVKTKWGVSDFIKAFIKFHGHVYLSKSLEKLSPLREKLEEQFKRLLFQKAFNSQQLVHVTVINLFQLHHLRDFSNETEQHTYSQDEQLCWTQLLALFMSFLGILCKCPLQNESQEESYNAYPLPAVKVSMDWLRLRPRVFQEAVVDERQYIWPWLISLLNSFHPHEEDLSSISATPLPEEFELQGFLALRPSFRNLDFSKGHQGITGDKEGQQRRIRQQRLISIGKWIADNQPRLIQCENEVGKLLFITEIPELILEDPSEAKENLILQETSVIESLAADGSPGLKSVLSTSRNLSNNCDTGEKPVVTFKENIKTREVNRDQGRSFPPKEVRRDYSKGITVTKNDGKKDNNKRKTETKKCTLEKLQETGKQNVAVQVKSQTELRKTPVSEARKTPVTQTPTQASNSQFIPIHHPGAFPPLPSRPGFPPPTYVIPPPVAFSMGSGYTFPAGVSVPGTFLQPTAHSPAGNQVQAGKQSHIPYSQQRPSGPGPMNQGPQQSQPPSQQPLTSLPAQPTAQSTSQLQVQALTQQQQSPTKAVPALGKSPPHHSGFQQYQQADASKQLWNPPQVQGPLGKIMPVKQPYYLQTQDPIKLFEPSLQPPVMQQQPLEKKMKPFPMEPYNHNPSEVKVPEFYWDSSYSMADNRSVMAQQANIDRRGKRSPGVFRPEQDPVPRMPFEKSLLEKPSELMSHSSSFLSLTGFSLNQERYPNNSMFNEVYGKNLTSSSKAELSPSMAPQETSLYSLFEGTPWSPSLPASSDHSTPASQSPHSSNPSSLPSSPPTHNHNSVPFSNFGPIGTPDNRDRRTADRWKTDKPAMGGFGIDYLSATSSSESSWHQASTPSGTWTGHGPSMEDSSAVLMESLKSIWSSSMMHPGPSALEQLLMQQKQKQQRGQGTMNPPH
UniProt Q00796: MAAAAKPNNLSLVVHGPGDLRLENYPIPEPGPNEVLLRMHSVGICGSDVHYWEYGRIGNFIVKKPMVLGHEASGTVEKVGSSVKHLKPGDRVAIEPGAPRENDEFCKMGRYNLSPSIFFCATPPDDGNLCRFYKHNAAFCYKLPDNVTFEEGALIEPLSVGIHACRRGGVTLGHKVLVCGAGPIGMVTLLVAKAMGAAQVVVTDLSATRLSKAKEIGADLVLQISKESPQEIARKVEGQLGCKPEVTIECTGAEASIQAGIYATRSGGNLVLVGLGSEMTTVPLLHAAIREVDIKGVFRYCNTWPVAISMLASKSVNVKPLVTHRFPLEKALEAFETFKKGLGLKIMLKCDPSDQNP
UniProt P62306, whole entry, looked up: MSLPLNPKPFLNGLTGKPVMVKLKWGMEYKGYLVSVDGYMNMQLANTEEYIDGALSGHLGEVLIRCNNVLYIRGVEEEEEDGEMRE
UniProt P51532, whole entry, looked up: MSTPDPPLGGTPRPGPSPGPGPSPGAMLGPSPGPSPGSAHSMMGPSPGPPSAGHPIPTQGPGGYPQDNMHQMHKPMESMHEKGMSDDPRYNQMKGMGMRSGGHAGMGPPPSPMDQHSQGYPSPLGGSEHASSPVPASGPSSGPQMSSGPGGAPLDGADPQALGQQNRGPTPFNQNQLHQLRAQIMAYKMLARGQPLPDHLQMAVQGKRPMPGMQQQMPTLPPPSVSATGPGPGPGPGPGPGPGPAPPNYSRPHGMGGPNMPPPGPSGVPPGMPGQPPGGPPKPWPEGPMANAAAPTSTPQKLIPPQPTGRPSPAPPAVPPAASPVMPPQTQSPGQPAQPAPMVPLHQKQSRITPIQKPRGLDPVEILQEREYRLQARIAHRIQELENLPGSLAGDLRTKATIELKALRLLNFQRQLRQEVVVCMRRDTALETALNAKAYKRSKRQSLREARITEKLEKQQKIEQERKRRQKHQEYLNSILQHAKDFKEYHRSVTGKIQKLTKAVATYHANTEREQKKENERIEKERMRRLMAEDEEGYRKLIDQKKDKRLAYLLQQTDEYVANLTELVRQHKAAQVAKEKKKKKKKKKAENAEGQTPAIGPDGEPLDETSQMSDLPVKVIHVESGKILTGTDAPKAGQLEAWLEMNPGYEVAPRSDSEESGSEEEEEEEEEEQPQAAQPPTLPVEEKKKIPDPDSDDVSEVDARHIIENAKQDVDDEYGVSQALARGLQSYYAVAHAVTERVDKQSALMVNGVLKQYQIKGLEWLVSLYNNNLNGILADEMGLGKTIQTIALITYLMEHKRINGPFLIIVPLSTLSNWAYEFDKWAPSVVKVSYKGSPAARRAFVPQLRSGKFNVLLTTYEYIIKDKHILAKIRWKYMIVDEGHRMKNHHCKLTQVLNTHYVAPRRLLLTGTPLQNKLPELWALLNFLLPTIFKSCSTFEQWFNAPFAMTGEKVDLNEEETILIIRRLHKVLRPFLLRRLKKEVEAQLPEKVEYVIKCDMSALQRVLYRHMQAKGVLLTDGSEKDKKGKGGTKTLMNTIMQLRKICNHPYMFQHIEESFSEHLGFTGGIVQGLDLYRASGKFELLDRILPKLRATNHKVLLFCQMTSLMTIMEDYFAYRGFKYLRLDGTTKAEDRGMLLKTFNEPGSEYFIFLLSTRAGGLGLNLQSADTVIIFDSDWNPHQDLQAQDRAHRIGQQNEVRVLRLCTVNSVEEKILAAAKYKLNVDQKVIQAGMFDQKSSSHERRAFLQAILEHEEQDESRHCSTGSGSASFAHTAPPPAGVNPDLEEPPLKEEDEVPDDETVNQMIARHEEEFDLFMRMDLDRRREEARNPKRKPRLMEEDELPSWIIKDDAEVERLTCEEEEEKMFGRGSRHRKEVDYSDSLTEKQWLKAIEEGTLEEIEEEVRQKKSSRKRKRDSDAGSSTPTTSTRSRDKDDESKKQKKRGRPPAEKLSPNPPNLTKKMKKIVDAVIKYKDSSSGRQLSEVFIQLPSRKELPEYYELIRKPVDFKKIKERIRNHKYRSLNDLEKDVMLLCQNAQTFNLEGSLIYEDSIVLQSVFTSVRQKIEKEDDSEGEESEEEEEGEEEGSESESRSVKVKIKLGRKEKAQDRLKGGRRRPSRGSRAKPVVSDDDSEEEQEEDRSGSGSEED
UniProt Q96SB8: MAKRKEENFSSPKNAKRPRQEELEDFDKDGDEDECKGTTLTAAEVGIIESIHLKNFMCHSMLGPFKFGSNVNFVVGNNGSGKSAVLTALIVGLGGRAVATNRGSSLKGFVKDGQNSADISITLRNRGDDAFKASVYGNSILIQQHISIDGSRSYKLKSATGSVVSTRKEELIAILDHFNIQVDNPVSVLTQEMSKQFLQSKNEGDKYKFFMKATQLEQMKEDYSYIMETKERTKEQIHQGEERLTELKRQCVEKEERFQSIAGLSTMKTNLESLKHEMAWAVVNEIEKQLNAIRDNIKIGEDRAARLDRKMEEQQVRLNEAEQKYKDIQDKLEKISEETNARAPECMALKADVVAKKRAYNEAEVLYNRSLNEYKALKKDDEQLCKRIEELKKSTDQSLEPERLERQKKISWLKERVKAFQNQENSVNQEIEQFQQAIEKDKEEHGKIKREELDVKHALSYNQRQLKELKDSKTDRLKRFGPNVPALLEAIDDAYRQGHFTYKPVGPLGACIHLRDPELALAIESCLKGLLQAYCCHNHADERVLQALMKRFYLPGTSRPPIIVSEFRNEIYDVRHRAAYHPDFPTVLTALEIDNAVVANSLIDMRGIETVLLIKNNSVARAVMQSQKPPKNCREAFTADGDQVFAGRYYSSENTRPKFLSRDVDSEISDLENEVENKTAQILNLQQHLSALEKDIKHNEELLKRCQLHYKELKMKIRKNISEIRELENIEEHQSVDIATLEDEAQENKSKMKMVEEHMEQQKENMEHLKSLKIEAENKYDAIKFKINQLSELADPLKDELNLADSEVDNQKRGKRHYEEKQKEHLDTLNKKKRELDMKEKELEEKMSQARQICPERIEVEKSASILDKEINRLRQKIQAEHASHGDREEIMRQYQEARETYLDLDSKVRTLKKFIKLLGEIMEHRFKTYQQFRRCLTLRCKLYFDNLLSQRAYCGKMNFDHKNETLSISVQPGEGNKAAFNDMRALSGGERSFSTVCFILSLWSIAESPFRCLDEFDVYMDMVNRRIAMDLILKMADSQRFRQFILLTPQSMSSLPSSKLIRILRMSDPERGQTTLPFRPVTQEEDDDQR
UniProt Q96EX1: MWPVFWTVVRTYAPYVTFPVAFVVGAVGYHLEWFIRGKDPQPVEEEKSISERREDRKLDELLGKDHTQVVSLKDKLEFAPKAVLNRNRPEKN
UniProt O95347, whole entry, looked up: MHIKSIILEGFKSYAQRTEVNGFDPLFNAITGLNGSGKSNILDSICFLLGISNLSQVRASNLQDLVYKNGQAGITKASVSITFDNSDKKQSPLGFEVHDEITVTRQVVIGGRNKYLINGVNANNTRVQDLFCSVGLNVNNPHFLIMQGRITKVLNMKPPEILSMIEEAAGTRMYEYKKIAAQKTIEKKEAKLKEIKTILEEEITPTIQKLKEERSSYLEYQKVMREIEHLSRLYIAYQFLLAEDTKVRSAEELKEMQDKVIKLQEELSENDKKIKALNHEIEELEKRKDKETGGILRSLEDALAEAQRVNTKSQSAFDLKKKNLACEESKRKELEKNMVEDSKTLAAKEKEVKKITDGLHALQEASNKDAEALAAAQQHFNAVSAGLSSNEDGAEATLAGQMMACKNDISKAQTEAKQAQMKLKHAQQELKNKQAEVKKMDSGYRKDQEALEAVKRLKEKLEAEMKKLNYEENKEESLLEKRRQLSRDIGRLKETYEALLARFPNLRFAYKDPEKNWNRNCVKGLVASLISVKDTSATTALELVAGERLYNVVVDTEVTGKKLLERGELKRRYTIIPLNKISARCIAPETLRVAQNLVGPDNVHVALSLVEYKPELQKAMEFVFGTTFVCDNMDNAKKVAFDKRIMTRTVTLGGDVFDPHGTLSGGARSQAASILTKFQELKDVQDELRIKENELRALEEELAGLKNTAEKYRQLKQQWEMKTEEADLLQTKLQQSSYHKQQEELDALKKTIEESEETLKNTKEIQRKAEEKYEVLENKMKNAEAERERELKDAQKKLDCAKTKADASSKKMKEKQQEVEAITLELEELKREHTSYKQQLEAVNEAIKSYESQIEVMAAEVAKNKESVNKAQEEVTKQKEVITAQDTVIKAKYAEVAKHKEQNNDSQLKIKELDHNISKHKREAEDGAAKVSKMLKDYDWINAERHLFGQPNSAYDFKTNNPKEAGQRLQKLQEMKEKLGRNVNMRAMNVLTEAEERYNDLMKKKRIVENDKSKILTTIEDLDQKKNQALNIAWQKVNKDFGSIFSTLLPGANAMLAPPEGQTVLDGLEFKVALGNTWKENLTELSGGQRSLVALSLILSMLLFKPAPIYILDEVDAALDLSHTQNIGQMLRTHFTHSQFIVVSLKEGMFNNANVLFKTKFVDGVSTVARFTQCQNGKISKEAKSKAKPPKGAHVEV
UniProt P55769: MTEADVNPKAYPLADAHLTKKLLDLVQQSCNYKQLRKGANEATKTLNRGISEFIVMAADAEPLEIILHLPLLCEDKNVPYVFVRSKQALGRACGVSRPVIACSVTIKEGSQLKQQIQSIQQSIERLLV
UniProt O75940: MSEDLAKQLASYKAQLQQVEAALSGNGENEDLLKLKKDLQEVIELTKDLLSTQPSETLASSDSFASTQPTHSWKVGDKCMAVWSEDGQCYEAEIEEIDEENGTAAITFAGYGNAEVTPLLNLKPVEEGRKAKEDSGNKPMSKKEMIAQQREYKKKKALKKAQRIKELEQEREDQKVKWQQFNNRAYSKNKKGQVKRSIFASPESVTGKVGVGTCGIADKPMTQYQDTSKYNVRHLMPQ

Experiments:
Assay in all cases: log2 fold change, soluble protein after heating vs DMSO (PISA); higher = thermal stabilisation; K562 lysate, 10 uM; active = over 0.2 and 3.5 SD of the protein, either way, in both replicates (recomputed)
ibrutinib = compound: C=CC(=O)N1CCC[C@@H](n2nc(-c3ccc(Oc4ccccc4)cc3)c3c(N)ncnc32)C1 [ibrutinib]
Outline: (§1)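 Soluble protein was defined as the supernatant remaining after 21,000xg for 90 min, following pooling of heated aliquots and adjustment to 0.5% NP-40 at 4°C. Before that, crude K562 extract at 1 mg/mL protein in PBS pH 7.4 with 1 mM MgCl2 was treated with 10 μM compound for 30 min and heated for 3 min across 48°C-58°C. Quantification used TMTpro 16plex LC-MS/MS with channel sums equalised, and values are log-two fold changes in thermal stability relative to solvent controls from duplicates.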

[1] = compound: CC(=O)c1cnc2ccc(-c3cc(Cl)c(O)c(Cl)c3)nc2c1N[C@H]1CC[C@H](CN(C)C)CC1
Outline: as §1

ralimetinib = compound: CC(C)(C)Cn1c(N)nc2ccc(-c3[nH]c(C(C)(C)C)nc3-c3ccc(F)cc3)nc21 [ralimetinib]
Outline: as §1

[2] = compound: CC(C)(O)CC(=O)NCCn1ccc2ncnc(Nc3ccc(Oc4cccc(C(F)(F)F)c4)c(Cl)c3)c21
Outline: as §1

[3] = compound: CC(C)C1=C2N=C(C=C(N2N=C1)NCC3=CC=CC=C3)NCCCCCCN
Outline: as §1

[4] = compound: CC1=C(C(CC(=O)N1)C2=CC=C(C=C2)C(F)(F)F)C(=O)NC3=C(C=C4C(=C3)C=NN4)F
Outline: as §1

[5] = compound: CC1=C(C2=C(C=C1)C(=O)C3=CC=CC=C3N2CCCN)C
Outline: as §1

[6] = compound: CC1=C(C=C(C=C1)NC(=O)C2=CC(=CC=C2)C(C)(C)C#N)NC3=CC4=C(C=C3)N=CN(C4=O)C
Outline: as §1

[7] = compound: CC1=C(C=C(C=C1)NC(=O)C2=CC(=CC=C2)N(C)C)NC(=O)C3=CC=C(C=C3)O
Outline: as §1

[8] = compound: CC1=CC=C(C=C1)SC2=C3C=C(SC3=CN=C2)C(=O)N
Outline: as §1

vemurafenib = compound: CCCS(=O)(=O)Nc1ccc(F)c(C(=O)c2c[nH]c3ncc(-c4ccc(Cl)cc4)cc23)c1F [vemurafenib]
Outline: as §1

[9] = compound: CCCS(=O)(=O)Nc1ccc(F)c(C(=O)c2c[nH]c3ncc(Cl)cc23)c1F
Outline: as §1

barasertib = compound: CCN(CCCOc1ccc2c(Nc3cc(CC(=O)Nc4cccc(F)c4)[nH]n3)ncnc2c1)CCOP(=O)(O)O [barasertib]
Outline: as §1

[10] = compound: CC[C@@H]1C(=O)N(C)c2cnc(Nc3ccc(C(=O)NC4CCN(C)CC4)cc3OC)nc2N1C1CCCC1
Outline: as §1

volasertib = compound: CC[C@@H]1C(=O)N(C)c2cnc(Nc3ccc(C(=O)N[C@H]4CC[C@H](N5CCN(CC6CC6)CC5)CC4)cc3OC)nc2N1C(C)C [volasertib]
Outline: as §1

[11] = compound: CCn1c(C(=O)N(C2CC2)C2CC2)cc2c3c(ncn3C)c(Nc3cc(C)n(C)n3)nc21
Outline: as §1

[12] = compound: CCn1cc(-c2ccnc3[nH]c(-c4cccc(CN(C)C)c4)cc23)c(-c2ccc(NC(=O)N(C)C)cc2)n1
Outline: as §1

[13] = compound: CN1CCC(CNc2ccc3ncc(-c4cccc(OC(F)(F)F)c4)n3n2)CC1
Outline: as §1

saracatinib = compound: CN1CCN(CCOc2cc(OC3CCOCC3)c3c(Nc4c(Cl)ccc5c4OCO5)ncnc3c2)CC1 [saracatinib]
Outline: as §1

sotrastaurin = compound: CN1CCN(c2nc(C3=C(c4c[nH]c5ccccc45)C(=O)NC3=O)c3ccccc3n2)CC1 [sotrastaurin]
Outline: as §1

Measured: log2 fold change

SOD1 (UniProt P00441)
inactive: ibrutinib 0.06 | [1] 0.004 | ralimetinib 0.049 | [2] 0.01 | [3] 0.025 | [4] -0.022 | [5] 0.152 | [6] -0.176 | [7] -0.039 | [8] 0.047 | vemurafenib -0.011 | [9] -0.019 | barasertib 0.047 | [10] 0.021 | volasertib 0.096 | [11] -0.01 | [12] 0.09 | [13] 0.05 | saracatinib -0.055 | sotrastaurin 0.134

SNX6, A0A0A0MRI2
inactive: ibrutinib -0.034 | [1] 0 | ralimetinib -0.005 | [2] -0.03 | [3] -0.011 | [4] -0.032 | [5] -0.001 | [6] 0.018 | [7] 0.039 | [8] -0.004 | vemurafenib 0.005 | [9] 0.025 | barasertib 0.006 | [10] -0.111 | volasertib -0.05 | [11] 0.026 | [12] 0.21 | [13] -0.126 | saracatinib -0.002 | sotrastaurin -0.013

SMG7 (UniProt Q92540)
inactive: ibrutinib 0.019 | [1] 0.041 | ralimetinib -0.036 | [2] -0.13 | [3] 0.066 | [4] -0.02 | [5] -0.01 | [6] -0.281 | [7] 0.047 | [8] 0.03 | vemurafenib 0.073 | [9] 0.011 | barasertib 0.098 | [10] 0.071 | volasertib -0.044 | [11] 0.074 | [12] -0.038 | [13] -0.014 | saracatinib 0.045 | sotrastaurin -0.02

SMU1 (UniProt Q2TAY7)
inactive: ibrutinib 0.009 | [1] 0.004 | ralimetinib -0.008 | [2] 0.011 | [3] 0.006 | [4] 0 | [5] 0.009 | [6] 0.016 | [7] 0.022 | [8] 0.008 | vemurafenib -0.016 | [9] 0.04 | barasertib 0.025 | [10] -0.055 | volasertib -0.024 | [11] 0.015 | [12] -0.005 | [13] 0.014 | saracatinib -0.034 | sotrastaurin -0.036

Quoted at random: 2 records from the list
SMG7 (UniProt Q92540)
inactive: ibrutinib 0.019 | [1] 0.041 | ralimetinib -0.036 | [2] -0.13 | [3] 0.066 | [4] -0.02 | [5] -0.01 | [6] -0.281 | [7] 0.047 | [8] 0.03 | vemurafenib 0.073 | [9] 0.011 | barasertib 0.098 | [10] 0.071 | volasertib -0.044 | [11] 0.074 | [12] -0.038 | [13] -0.014 | saracatinib 0.045 | sotrastaurin -0.02

SOD1 (UniProt P00441)
inactive: ibrutinib 0.06 | [1] 0.004 | ralimetinib 0.049 | [2] 0.01 | [3] 0.025 | [4] -0.022 | [5] 0.152 | [6] -0.176 | [7] -0.039 | [8] 0.047 | vemurafenib -0.011 | [9] -0.019 | barasertib 0.047 | [10] 0.021 | volasertib 0.096 | [11] -0.01 | [12] 0.09 | [13] 0.05 | saracatinib -0.055 | sotrastaurin 0.134

The results go on:

SOS1 (UniProt Q07889)
inactive: ibrutinib 0.044 | [1] -0.004 | ralimetinib 0 | [2] -0.082 | [3] 0.012 | [4] 0.032 | [5] -0.026 | [6] -0.038 | [7] 0.118 | [8] 0.036 | vemurafenib -0.002 | [9] 0.02 | barasertib 0.044 | [10] -0.104 | volasertib -0.078 | [11] 0.058 | [12] -0.074 | [13] -0.029 | saracatinib 0.008 | sotrastaurin -0.003

SORD (UniProt Q00796)
inactive: ibrutinib -0.001 | [1] 0.013 | ralimetinib -0.033 | [2] -0.007 | [3] 0.016 | [4] -0.01 | [5] -0.019 | [6] 0.017 | [7] -0.033 | [8] 0.014 | vemurafenib -0.006 | [9] -0.008 | barasertib -0.015 | [10] -0.021 | volasertib 0.03 | [11] 0 | [12] -0.025 | [13] 0.067 | saracatinib -0.032 | sotrastaurin 0.005

SNX27 (UniProt Q96L92)
inactive: ibrutinib 0.014 | [1] -0.037 | ralimetinib 0.026 | [2] -0.013 | [3] -0.012 | [4] -0.007 | [5] 0.047 | [6] 0.032 | [7] 0.016 | [8] 0.008 | vemurafenib 0.016 | [9] 0.034 | barasertib 0.045 | [10] -0.031 | volasertib -0.026 | [11] 0.055 | [12] -0.052 | [13] -0.025 | saracatinib 0.04 | sotrastaurin 0.031

SOAT1 (UniProt P35610)
inactive: ibrutinib 0.043 | [1] 0.017 | ralimetinib 0.151 | [2] -0.107 | [3] -0.055 | [4] -0.046 | [5] -0.022 | [6] 0.1 | [7] -0.012 | [8] 0.019 | vemurafenib 0.047 | [9] 0.055 | barasertib 0.008 | [10] -0.003 | volasertib -0.009 | [11] -0.061 | [12] -0.063 | [13] -0.062 | saracatinib 0.016 | sotrastaurin 0.019

SNRPF (UniProt P62306)
active: [12] -0.35
inactive: ibrutinib -0.027 | [1] -0.013 | ralimetinib -0.024 | [2] -0.072 | [3] -0.004 | [4] 0.015 | [5] -0.137 | [6] 0.018 | [7] 0.028 | [8] -0.082 | vemurafenib 0.023 | [9] 0.002 | barasertib 0.045 | [10] 0.067 | volasertib 0.032 | [11] -0.051 | [13] 0.24 | saracatinib -0.044 | sotrastaurin 0.042

SMARCA4 (UniProt P51532)
inactive: ibrutinib 0.021 | [1] -0.007 | ralimetinib 0.035 | [2] 0.018 | [3] -0.009 | [4] -0.003 | [5] -0.032 | [6] -0.026 | [7] 0.028 | [8] 0.012 | vemurafenib 0.011 | [9] 0.006 | barasertib 0.038 | [10] -0.058 | volasertib -0.024 | [11] 0.02 | [12] -0.044 | [13] -0.024 | saracatinib 0.011 | sotrastaurin 0.034

SMC6 (UniProt Q96SB8)
inactive: ibrutinib 0.021 | [1] -0.006 | ralimetinib 0.005 | [2] -0.012 | [3] 0.023 | [4] 0.065 | [5] 0.006 | [6] 0.006 | [7] 0.001 | [8] -0.01 | vemurafenib 0.044 | [9] 0.01 | barasertib 0.014 | [10] 0.047 | volasertib -0.031 | [11] 0.012 | [12] -0.036 | [13] 0.024 | saracatinib 0.046 | sotrastaurin 0.027

SMIM12 (UniProt Q96EX1)
active: [12] 0.355
inactive: ibrutinib 0.04 | [1] 0.013 | ralimetinib 0.021 | [2] -0.049 | [3] -0.024 | [4] -0.008 | [5] -0.002 | [6] 0.038 | [7] -0.064 | [8] -0.011 | vemurafenib 0.023 | [9] 0.024 | barasertib 0.106 | [10] 0.129 | volasertib -0.004 | [11] 0.08 | [13] -0.269 | saracatinib 0.041 | sotrastaurin 0.025

SMC2 (UniProt O95347)
inactive: ibrutinib 0.014 | [1] -0.011 | ralimetinib -0.016 | [2] -0.008 | [3] 0.014 | [4] -0.012 | [5] 0 | [6] 0 | [7] 0.013 | [8] 0.001 | vemurafenib 0.002 | [9] 0.007 | barasertib -0.001 | [10] -0.033 | volasertib -0.047 | [11] -0.002 | [12] 0.134 | [13] -0.121 | saracatinib 0.005 | sotrastaurin 0.014

SNU13 (UniProt P55769)
inactive: ibrutinib -0.008 | [1] 0.003 | ralimetinib 0.001 | [2] -0.022 | [3] 0.003 | [4] -0.011 | [5] -0.031 | [6] 0 | [7] 0.02 | [8] -0.023 | vemurafenib 0.047 | [9] 0.036 | barasertib 0.007 | [10] 0.024 | volasertib -0.006 | [11] -0.028 | [12] -0.076 | [13] -0.03 | saracatinib -0.01 | sotrastaurin -0.055

SMG1 (UniProt Q96Q15)
inactive: ibrutinib 0.041 | [1] 0.017 | ralimetinib 0.044 | [2] -0.019 | [3] -0.003 | [4] 0.005 | [5] 0.027 | [6] 0.023 | [7] 0.017 | [8] 0.007 | vemurafenib 0.059 | [9] 0.031 | barasertib 0.08 | [10] 0.017 | volasertib -0.027 | [11] -0.026 | [12] 0.003 | [13] -0.072 | saracatinib 0.039 | sotrastaurin 0.032

SMNDC1 (UniProt O75940)
inactive: ibrutinib -0.011 | [1] -0.012 | ralimetinib 0.026 | [2] -0.041 | [3] 0.035 | [4] 0.01 | [5] 0.023 | [6] 0.027 | [7] -0.011 | [8] -0.01 | vemurafenib 0.002 | [9] -0.03 | barasertib -0.046 | [10] 0.066 | volasertib 0.027 | [11] -0.02 | [12] 0.055 | [13] -0.011 | saracatinib -0.021 | sotrastaurin 0.048
